{"source": "patent US12714678B2", "about": "“Peptides and methods of treating sepsis, atherosclerosis, thrombosis, stroke, heart attack and inflammation” (THE BOARD OF TRUSTEES OF THE UNIVERSITY OF ILLINOIS, priority 2019, dated 2026)", "key": {"Gα13-β3 interaction": {"target": "T1, Gα13-β3 interaction (Homo sapiens, UniProt Q14344)", "T1 construct": "endogenous in cells; host or cells: human platelets", "T1 sequence (Q14344 1-377)": "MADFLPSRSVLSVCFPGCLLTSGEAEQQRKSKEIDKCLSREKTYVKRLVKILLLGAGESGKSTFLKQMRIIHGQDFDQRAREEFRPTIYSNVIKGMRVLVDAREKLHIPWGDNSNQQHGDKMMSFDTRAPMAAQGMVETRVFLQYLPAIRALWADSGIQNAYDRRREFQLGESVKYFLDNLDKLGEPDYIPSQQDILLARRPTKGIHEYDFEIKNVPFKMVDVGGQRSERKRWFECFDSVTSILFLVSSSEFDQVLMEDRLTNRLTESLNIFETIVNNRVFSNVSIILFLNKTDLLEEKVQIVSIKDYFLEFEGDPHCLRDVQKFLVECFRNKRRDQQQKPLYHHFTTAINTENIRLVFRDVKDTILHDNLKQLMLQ", "assay": "Co-immunoprecipitation of integrin β3 and Gα13 in thrombin-stimulated human platelets", "type": "cell-based", "conditions": "thrombin 0.025 U/mL; compared to scrambled/control peptide; MB2mP6 50 μM"}, "human platelets [1]": {"test_system": "human platelets", "assay": "Human platelet granule (ATP) secretion (lumiaggregometer)", "type": "cell-based", "protocol": "(§1) For human subjects, Institutional Review Board approval was obtained from the University of Illinois at Chicago, and informed consent from volunteers was obtained in accordance with the Declaration of Helsinki. Platelets were prepared as previously described (33). Platelet aggregation and adenosine triphosphate (ATP) secretion were measured simultaneously in a lumiaggregometer (Chronolog) at 37° C. with stirring (1000 rpm), as previously described (34).\n(§2) To prepare platelet-rich plasma (PRP), whole blood was anticoagulated with 3.8% trisodium citrate. To prepare human platelets, one-seventh volume of ACD was used as anticoagulant. Platelets were washed twice and resuspended in modified Tyrode's buffer as previously described (27). Platelet aggregation and adenosine triphosphate (ATP) secretion were measured simultaneously in a lumiaggregometer (Chronolog) at 37° C. with stirring (1000 rpm) as previously described (28)."}, "C57BL/6 mice [2]": {"test_system": "C57BL/6 mice", "assay": "FeCl3-induced mouse carotid artery thrombosis model", "type": "in vivo", "protocol": "The right carotid artery was isolated (34, 37). A MA-0.5SB nanoprobe (Transonic Systems, Ithaca, NY) was hooked to the carotid artery to monitor blood flow with a TS420 flowmeter (Transonic Systems) as previously described (38). After stabilization, carotid arterial thrombosis was induced with 7.5% ferric chloride (FeCl3) (Sigma Aldrich, St. Louis, MO), a filter paper disc (2 mm diameter) soaked with 1.2 μL of 7.5% FeCl3 was placed on top of the artery for 3 minutes, and then removed. M3mP6 HLPN, HLPN of scrambled control peptide, HLPN of a second control peptide carrying AAA mutation or physiological saline solution were injected 15 minutes before procedure retro-orbitally. […] To study the effect of post-injury drug injection on thrombosis development, the filter paper disc soaked with 1.2 μl 3.75% FeCl3 were placed on artery for 2 minutes, and drugs were injected retro-orbitally 3 minutes after removing the filter paper. Blood flow was monitored continuously until 5 minutes after occlusion or for 30 minutes if no occlusion occurred. Time to occlusion was defined as the time between the removal of the filter paper and stable occlusion (no blood flow for 2 minutes).\nEight- to 10-week-old C57BL/6 mice (20-25 g body weight) were anesthetized by isoflurane inhalation. The right carotid artery was isolated. A MA-0.5SB nanoprobe (Transonic Systems, Ithaca, NY) was hooked to the carotid artery to monitor blood flow with a TS420 flowmeter (Transonic Systems) as previously described (29). After stabilization, a filter paper disc (2 mm diameter) soaked with 1.2 μL of 7.5% FeCl3 (Sigma Aldrich, St. Louis, MO) was placed on top of the carotid artery for 3 minutes to induce thrombosis and then removed. MB2mP6 or scrambled control peptide were injected 15 minutes before the procedure retro-orbitally. Blood flow was monitored continuously until 5 minutes after occlusion or for 15 minutes if no occlusion occurred. Time to occlusion was defined as the time between the removal of the filter paper and stable occlusion (no blood flow for 5 minutes)."}, "human platelets [3]": {"test_system": "human platelets", "assay": "Human platelet aggregation (lumiaggregometer)", "type": "cell-based", "protocol": "as §1, §2"}, "C57BL/6 mice [4]": {"test_system": "C57BL/6 mice", "assay": "Mouse myocardial ischemia and reperfusion (MI/R) model"}, "[5]": {"target": "T2, Gα13 interaction with β2 integrin (Homo sapiens, UniProt Q14344)", "T2 construct": "co-immunoprecipitation of β2 integrin and Gα13 with anti-β2 antibody in human neutrophils; endogenous in cells; host or cells: human neutrophils (PMN)", "T2 sequence (Q14344 1-377)": "T1 sequence (Q14344 1-377)", "assay": "Co-immunoprecipitation of integrin β2 and Gα13 in fMLF-stimulated human neutrophils on ICAM1", "type": "cell-based", "conditions": "formyl peptide-stimulated human neutrophils, 50 μM, vs control peptide"}, "C57BL/6 mice [6]": {"test_system": "C57BL/6 mice", "assay": "Cecal ligation and puncture (CLP) sepsis model", "type": "in vivo, mouse", "protocol": "CLP sepsis was induced as described previously (32, 33). In brief, mice (14- to 16-week-old with equal number of each gender) were anesthetized by intraperitoneal administration of ketamine (100 mg/kg body weight) and xylazine (8 mg/kg). After a midline laparotomy, the cecum was ligated at about 1 cm from the end and then subjected to a double “through and through” perforation with an 18-gauge needle. Sham-operated mice underwent the same procedure except for ligation and puncture of the cecum. After the procedure, an analgesic (buprenorphine, 0.1 mg/kg, s.c.) was given immediately and every 12 h thereafter for 3 d. At these time points, fluid resuscitation (prewarmed 0.9% NaCl, 0.05 ml/g body weight) was given through subcutaneous injection to prevent fluid loss and help the recovery of body temperature. One hour after surgery, antibiotic (Claforan® solution; 10 mg/kg body weight) was subcutaneously administrated (to mimic clinical conditions) for 5 days. The medication was continued until the situation of scheduled sacrifice, death, or study completion in the surviving mice. The survival of mice was observed every 6 h for 8 days and analyzed by the Log Rank test (using Prism GraphPad software (ver. 5.0), San Diego, CA, USA). For CLP-induced mouse organ injury, blood samples and kidney or lung tissues were collected 24 hours after CLP and subjected to cytokine and immunohistochemistry analyses.\nMice were weighed, anesthetized using ketamine/xylazine (100/5 mg/kg), and transferred to a heated platform under a dissection microscope. A 5 mm incision through the skin on the upper part of the mouse back was made posterior to the ears and between the scapulae. The mouse was then placed in a supine position and the skin over the right-side jugular vein was shaved and cleaned with hexachlorophene and 70% ethanol. After a vertical incision over the jugular site, the vein was dissected and exposed. The catheter was tunneled from the upper back incision to jugular incision through a trocar sleeve kit (DSI, St. Paul, MN). The jugular vein was carefully separated, and two sutures were drawn around vessel and tied loosely. Then, a small incision was made in the vein, the beveled catheter was inserted and tied in place with a suture, without closing off the catheter. The wound was closed using 6-0 suture and cleaned with hexachlorophene.\nTwenty-four hours after CLP, mouse blood was collected and added to an EDTA-rinsed microcentrifuge tube or citrate buffer. The plasma was obtained after centrifugation at 1,000 g at 4° C. for 5 minutes. In some case, mouse serum was collected from blood without adding any anti-coagulant. The kidney function markers BUN, creatinine and cystatin C and mouse liver function marker ALT were detected using corresponding kits according to the manufacturers' instructions. Septic mouse kidney, lung and liver tissue were collected from the sacrificed mice 24 hours after CLP, as well as from sham-operated mice and fixed in 10% formalin.\nMouse kidney and lung were collected 24 hours after CLP after perfusion with phosphate-buffered saline and then fixed in 10% formalin solution."}, "mouse neutrophils [7]": {"test_system": "mouse neutrophils", "assay": "Transwell / transendothelial neutrophil migration assay", "type": "cell-based"}, "human neutrophils": {"test_system": "human neutrophils", "assay": "Neutrophil spreading area on ICAM1", "type": "cell-based", "conditions": "15 min at 37° C."}, "mouse BMDMs": {"test_system": "mouse BMDMs", "assay": "Cytokine expression in LPS-stimulated mouse bone marrow derived macrophages (BMDMs), qRT-PCR", "type": "cell-based", "conditions": "LPS 100 ng/mL, mRNA"}, "mouse neutrophils [8]": {"test_system": "mouse neutrophils", "assay": "Neutrophil adhesion to ICAM1", "type": "cell-based", "conditions": "50 μM, compared to control peptide"}, "[9]": {"target": "T3, Gα13 co-immunoprecipitation with β2 integrins (Homo sapiens, UniProt Q14344)", "T3 construct": "co-immunoprecipitation of β2 integrin and Gα13 with anti-β2 antibody in PMA differentiated THP-1 cells; endogenous in cells; host or cells: PMA-differentiated THP-1 cells", "T3 sequence (Q14344 1-377)": "T1 sequence (Q14344 1-377)", "assay": "Co-immunoprecipitation of β2 integrin and Gα13 in LPS-stimulated differentiated THP-1 cells", "type": "cell-based", "conditions": "LPS 100 ng/mL, THP-1 macrophages, 50 μM"}}, "note": "Entries after “also recorded” stand apart in the source; their conditions may differ. At least one peptide structure holds a part that was inferred or is arguable (an end, a ring closure or a residue). Where a SMILES comes first, the peptide text is derived from it. The star is where a group is joined. Myristoyl = CCCCCCCCCCCCCC(=O)*"}
{"smiles": "CCCCCCCCCCCCCC(=O)N[C@@H](Cc1ccccc1)C(=O)N[C@@H](CCC(=O)O)C(=O)N[C@@H](CCC(=O)O)C(=O)N[C@@H](CCC(=O)O)C(=O)N[C@@H](CCCNC(=N)N)C(=O)N[C@@H](CC(C)C)C(=O)O", "note": "[M3mP6, Myr-FEEERL] (Myristoyl-FEEERL-OH; C-terminus assumed)", "values": [{"measurement": "coimmunoprecipitation of integrin β3 and Gα13", "setting": "Gα13-β3 interaction", "value": "retains the function of mP6 to inhibit; also recorded: Dose-dependent inhibitory effects"}, {"measurement": "platelet granule secretion at higher thrombin concentrations", "setting": "human platelets [1]", "value": "partially inhibited"}, {"measurement": "time after injection at which anti-thrombotic effect was demonstrated", "setting": "C57BL/6 mice [2]; 5 μmol/kg retro-orbital", "value": 5, "unit": "min"}, {"measurement": "time after injection until which anti-thrombotic effect lasted", "setting": "C57BL/6 mice [2]; 5 μmol/kg retro-orbital", "value": "about 45 minutes"}, {"measurement": "concentration giving comparable effect on human platelet aggregation", "setting": "human platelets [3]; HLPN versus DMSO-solubilized peptide", "value": 160, "unit": "µM"}, {"measurement": "plasma MPO levels", "setting": "C57BL/6 mice [4]; 24 hours after MI/R", "value": "reduced"}, {"measurement": "efficacy in treating myocardial ischemia/reperfusion injury compared with cangrelor", "setting": "C57BL/6 mice [4]; LVEF and survival", "value": "significantly more effective than cangrelor"}]}
{"smiles": "CCCCCCCCCCCCCC(=O)N[C@@H](Cc1ccccc1)C(=O)N[C@@H](CCC(=O)O)C(=O)N[C@@H](CCCCN)C(=O)N[C@@H](CCC(=O)O)C(=O)N[C@@H](CCCCN)C(=O)N[C@@H](CC(C)C)C(=O)O", "note": "[MB2mP6, Myr-FEKEKL] (Myristoyl-FEKEKL-OH; C-terminus assumed)", "values": [{"measurement": "Gα13 interaction with β2 integrin", "setting": "[5]", "value": "inhibited"}, {"measurement": "coimmunoprecipitation of integrin β3 and Gα13", "setting": "Gα13-β3 interaction", "value": "cross-inhibited"}, {"measurement": "BUN", "setting": "C57BL/6 mice [6]; 24 hours after CLP", "value": "reduced"}, {"measurement": "creatinine", "setting": "C57BL/6 mice [6]; 24 hours after CLP", "value": "reduced"}, {"measurement": "cystatin C", "setting": "C57BL/6 mice [6]; 24 hours after CLP", "value": "reduced"}, {"measurement": "serum IL-6, 24 hours after CLP", "setting": "C57BL/6 mice [6]; ELISA", "value": "significantly reduced"}, {"measurement": "serum TNFα, 24 hours after CLP", "setting": "C57BL/6 mice [6]; ELISA", "value": "significantly reduced"}, {"measurement": "vascular leakage in septic mouse lungs", "setting": "C57BL/6 mice [6]; Evans blue albumin, infusion immediately or 6 h after CLP", "value": "inhibits"}, {"measurement": "glomerular thrombosis", "setting": "C57BL/6 mice [6]; PTAH, anti-fibrin and anti-αIIb staining, 24 hours after CLP", "value": "significantly inhibited"}, {"measurement": "inflammation induced by CLP as indicated by proinflammatory cytokine levels", "setting": "C57BL/6 mice [6]; mouse, in vivo", "value": "significantly reduced"}, {"measurement": "platelet granule secretion induced by low dose thrombin", "setting": "human platelets [1]; thrombin 0.03 U/mL", "value": "inhibited"}, {"measurement": "transendothelial migration of Gα13−/− neutrophils", "setting": "mouse neutrophils [7]; 50 μM", "value": "did not further inhibit"}, {"measurement": "wild type neutrophil transmigration on endothelial cells or ICAM1 coated transwell filters", "setting": "mouse neutrophils [7]; 50 μM", "value": "inhibited"}, {"measurement": "neutrophil migration on fibrinogen-coated transwells", "setting": "mouse neutrophils [7]; 50 μM, fibrinogen 60 μg/ml", "value": "not affected"}, {"measurement": "neutrophil transendothelial migration induced by fMIVIL", "setting": "mouse neutrophils [7]; vs control peptide", "value": "significantly attenuated; also recorded: dose-dependently inhibited"}, {"measurement": "size of control neutrophils adherent to ICAM1 compared with control neutrophils treated with peptide", "setting": "human neutrophils", "value": "significantly larger"}, {"measurement": "formation of stable occlusive thrombus / occlusion time vs normal control", "setting": "C57BL/6 mice [2]; 7.5% FeCl3, M3mP6 HLPN 5 or 10 μmol/kg retro-orbital 15 min before, aspirin 4.3 mg/kg oral 2 h, clopidogrel 4 mg/kg oral 2 h, MB2mP6 15 min before", "value": "inhibited"}, {"measurement": "anti-thrombotic effect compared with M3mP6 HLPN (10 μmol/kg), pre-injury dosing", "setting": "C57BL/6 mice [2]; clopidogrel 4 mg/kg, ticagrelor 3 mg/kg, aspirin 4.3 mg/kg oral, cangrelor 30 μg/kg retro-orbital, MB2mP6", "value": "less potent"}, {"measurement": "LPS-induced expression of IL-6", "setting": "mouse BMDMs", "value": "potently inhibited"}, {"measurement": "LPS-induced expression of IL-10", "setting": "mouse BMDMs", "value": "potently inhibited"}, {"measurement": "platelet aggregation induced by low dose thrombin", "setting": "human platelets [3]; thrombin 0.03 U/mL, human platelets", "value": "inhibited"}, {"measurement": "neutrophil adhesion to ICAM1", "setting": "mouse neutrophils [8]", "value": "no significant effect"}, {"measurement": "Gα13 co-immunoprecipitation with β2 integrins", "setting": "[9]", "value": "potently inhibited"}]}
